Experimental data taken from PMC2672601.
No constants are given. Whether binding was seen depends on the method and setting. Binding seen in cells or lysates may run through a third protein. Some binding calls cover weakened binding; strength is not graded here. Tags and fused reporters may be left off the sequences shown. Blank lines part the entries; values can stand above or below the molecule they belong to.

Protein sequences, listed by entry. Tags and fused reporters are not part of them. Residues count along the entry.
UniProt P16305, residues 20-453: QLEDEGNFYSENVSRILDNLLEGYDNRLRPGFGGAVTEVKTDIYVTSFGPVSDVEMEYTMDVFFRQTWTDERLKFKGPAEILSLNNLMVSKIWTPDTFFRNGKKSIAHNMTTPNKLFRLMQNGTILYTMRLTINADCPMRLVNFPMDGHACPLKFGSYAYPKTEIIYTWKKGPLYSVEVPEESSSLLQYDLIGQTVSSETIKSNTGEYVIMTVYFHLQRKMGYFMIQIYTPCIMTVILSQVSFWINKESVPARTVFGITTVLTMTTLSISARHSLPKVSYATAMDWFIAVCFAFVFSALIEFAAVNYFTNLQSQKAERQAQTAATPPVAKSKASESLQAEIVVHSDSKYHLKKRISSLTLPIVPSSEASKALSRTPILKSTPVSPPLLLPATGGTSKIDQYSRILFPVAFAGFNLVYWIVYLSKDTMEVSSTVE
UniProt Q62277: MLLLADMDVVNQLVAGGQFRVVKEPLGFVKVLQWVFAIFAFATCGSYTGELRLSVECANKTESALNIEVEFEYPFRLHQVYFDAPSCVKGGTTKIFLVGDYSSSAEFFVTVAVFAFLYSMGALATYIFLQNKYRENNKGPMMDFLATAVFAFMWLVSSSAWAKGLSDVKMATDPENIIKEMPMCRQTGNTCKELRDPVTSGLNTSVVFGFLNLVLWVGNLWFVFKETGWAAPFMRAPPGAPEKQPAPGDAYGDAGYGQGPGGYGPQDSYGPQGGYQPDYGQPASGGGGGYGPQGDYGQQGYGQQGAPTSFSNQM

Key:
[1] = molecular target: T1, VGluRδ2 (fusion between Venus and the glutamate receptor delta2, GluRδ2) (UniProt Q61625); assay: co-IP; anti-GFP antibody on Dynabeads M-270 epoxy beads; pooled excitatory synaptic gel-filtration fractions of a crude synaptosome fraction (P2) solubilised in 0.5% Triton X-100, from ten cerebella of Pcp2/VGluRδ2 or Pcp2/eGFP mice; 1 h at 4 °C; wash with 300 mM NaCl, 0.5% Triton X-100; western blot of the affinity-purified samples
T1 sequence: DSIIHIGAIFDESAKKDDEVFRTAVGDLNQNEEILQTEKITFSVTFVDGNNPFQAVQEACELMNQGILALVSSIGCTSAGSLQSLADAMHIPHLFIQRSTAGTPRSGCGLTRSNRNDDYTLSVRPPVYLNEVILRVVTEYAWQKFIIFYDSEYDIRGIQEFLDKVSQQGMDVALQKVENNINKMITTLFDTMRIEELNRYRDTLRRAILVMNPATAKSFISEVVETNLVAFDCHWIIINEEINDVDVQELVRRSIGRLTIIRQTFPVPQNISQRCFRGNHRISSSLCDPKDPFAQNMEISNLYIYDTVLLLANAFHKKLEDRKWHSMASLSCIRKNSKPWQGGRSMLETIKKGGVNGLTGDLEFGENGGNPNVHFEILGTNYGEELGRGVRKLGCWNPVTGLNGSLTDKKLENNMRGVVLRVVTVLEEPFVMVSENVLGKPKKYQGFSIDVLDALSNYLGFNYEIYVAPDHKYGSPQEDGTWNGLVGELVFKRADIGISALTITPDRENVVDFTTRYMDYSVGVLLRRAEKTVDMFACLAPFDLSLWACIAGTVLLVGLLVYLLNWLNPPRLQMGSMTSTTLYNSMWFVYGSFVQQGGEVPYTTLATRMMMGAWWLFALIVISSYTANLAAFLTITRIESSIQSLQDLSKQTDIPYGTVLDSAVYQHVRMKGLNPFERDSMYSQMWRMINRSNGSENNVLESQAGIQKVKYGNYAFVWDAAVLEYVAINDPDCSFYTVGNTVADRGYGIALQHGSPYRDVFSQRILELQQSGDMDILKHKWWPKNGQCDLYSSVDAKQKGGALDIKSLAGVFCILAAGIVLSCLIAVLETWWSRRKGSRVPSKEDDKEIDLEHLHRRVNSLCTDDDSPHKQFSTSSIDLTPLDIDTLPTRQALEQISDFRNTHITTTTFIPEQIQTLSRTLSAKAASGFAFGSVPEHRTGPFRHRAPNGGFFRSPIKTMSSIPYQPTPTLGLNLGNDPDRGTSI

[2] = molecular target: T2, VGluRδ2 (fusion between Venus and the glutamate receptor delta2, GluRδ2), Q61625; assay: co-IP; affinity purification with an anti-GFP antibody from 1% Triton X-100 cerebellar extracts of wild-type, Pcp2/VGluRδ2 and Pcp2/eGFP mice; immunoblot with anti-GFP and anti-GluRδ2 antibodies; details: remark: other sources report otherwise
T2 chain: T1 sequence

[3] = molecular target: T2, VGluRδ2 (fusion between Venus and the …); assay: co-IP; anti-GFP antibody on Dynabeads M-270 epoxy beads; pooled excitatory synaptic gel-filtration fractions of a crude synaptosome fraction (P2) solubilised in 0.5% Triton X-100, from ten cerebella of Pcp2/VGluRδ2 or Pcp2/eGFP mice; 1 h at 4 °C; wash with 300 mM NaCl, 0.5% Triton X-100; western blot of the affinity-purified samples; details: remark: other sources report otherwise

Molecule: GABA(A) receptor α6 (from UniProt P16305 20-453)
binding [1]: no binding

Molecule: synapsin I (from UniProt O88935 1-706)
binding [1]: no binding

B1: glutamate receptor delta2, GluRδ2 (endogenous), Q61625 24-1007 (receptor)
chain: T1 sequence
binding [2]: binds
binding [3]: binds

More lines, now with the values ahead:

binding [1]: no binding
Molecule: synaptophysin (from UniProt Q62277 1-314)

binding [1]: no binding
B2: gephyrin (protein, UniProt Q8BUV3 1-769)
chain: MATEGMILTNHDHQIRVGVLTVSDSCFRNLAEDRSGINLKDLVQDPSLLGGTISAYKIVPDEIEEIKETLIDWCDEKELNLILTTGGTGFAPRDVTPEATKEVIEREAPGMALAMLMGSLNVTPLGMLSRPVCGIRGKTLIINLPGSKKGSQECFQFILPALPHAIDLLRDAIVKVKEVHDELEDLPSPPPPLSPPPTTSPHKQTEDKGVQCEEEEEEKKDSGVASTEDSSSSHITAAALAAKIPDSIISRGVQVLPRDTASLSTTPSESPRAQATSRLSTASCPTPKQIRRPDESKGVASRVGSLKARLPSCSSTYSVSEVQSRCSSKENILRASHSAVDITKVARRHRMSPFPLTSMDKAFITVLEMTPVLGTEIINYRDGMGRVLAQDVYAKDNLPPFPASVKDGYAVRAADGPGDRFIIGESQAGEQPTQTVMPGQVMRVTTGAPIPCGADAVVQVEDTELIRESDDGTEELEVRILVQARPGQDIRPIGHDIKRGECVLAKGTHMGPSEIGLLATVGVTEVEVNKFPVVAVMSTGNELLNPEDDLLPGKIRDSNRSTLLATIQEHGYPTINLGIVGDNPDDLLNALNEGISRADVIITSGGVSMGEKDYLKQVLDIDLHAQIHFGRVFMKPGLPTTFATLDIDGVRKIIFALPGNPVSAVVTCNLFVVPALRKMQGILDPRPTIIKARLSCDVKLDPRPEYHRCILTWHHQEPLPWAQSTGNQMSSRLMSMRSANGLLMLPPKTEQYVELHKGEVVDVMVIGRL
